The record followed here is the supplement of paper PMC10849652.

By UniProt entry, the sequences of proteins in these tests, tags left out. Where a name states a change or a piece, a line headed by the entry shows the natural chain unless it says otherwise.
UniProt O77932: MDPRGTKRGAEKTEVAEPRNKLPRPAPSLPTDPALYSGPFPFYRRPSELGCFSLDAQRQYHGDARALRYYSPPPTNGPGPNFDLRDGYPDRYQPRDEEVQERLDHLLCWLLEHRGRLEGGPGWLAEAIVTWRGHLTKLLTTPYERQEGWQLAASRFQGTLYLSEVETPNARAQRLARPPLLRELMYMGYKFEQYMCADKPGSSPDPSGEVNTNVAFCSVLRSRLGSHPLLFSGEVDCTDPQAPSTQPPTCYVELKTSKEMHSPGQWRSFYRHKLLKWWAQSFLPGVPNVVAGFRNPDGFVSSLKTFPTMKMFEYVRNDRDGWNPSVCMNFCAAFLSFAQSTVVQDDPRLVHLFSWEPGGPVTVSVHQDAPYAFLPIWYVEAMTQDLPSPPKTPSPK
UniProt Q6XUX3: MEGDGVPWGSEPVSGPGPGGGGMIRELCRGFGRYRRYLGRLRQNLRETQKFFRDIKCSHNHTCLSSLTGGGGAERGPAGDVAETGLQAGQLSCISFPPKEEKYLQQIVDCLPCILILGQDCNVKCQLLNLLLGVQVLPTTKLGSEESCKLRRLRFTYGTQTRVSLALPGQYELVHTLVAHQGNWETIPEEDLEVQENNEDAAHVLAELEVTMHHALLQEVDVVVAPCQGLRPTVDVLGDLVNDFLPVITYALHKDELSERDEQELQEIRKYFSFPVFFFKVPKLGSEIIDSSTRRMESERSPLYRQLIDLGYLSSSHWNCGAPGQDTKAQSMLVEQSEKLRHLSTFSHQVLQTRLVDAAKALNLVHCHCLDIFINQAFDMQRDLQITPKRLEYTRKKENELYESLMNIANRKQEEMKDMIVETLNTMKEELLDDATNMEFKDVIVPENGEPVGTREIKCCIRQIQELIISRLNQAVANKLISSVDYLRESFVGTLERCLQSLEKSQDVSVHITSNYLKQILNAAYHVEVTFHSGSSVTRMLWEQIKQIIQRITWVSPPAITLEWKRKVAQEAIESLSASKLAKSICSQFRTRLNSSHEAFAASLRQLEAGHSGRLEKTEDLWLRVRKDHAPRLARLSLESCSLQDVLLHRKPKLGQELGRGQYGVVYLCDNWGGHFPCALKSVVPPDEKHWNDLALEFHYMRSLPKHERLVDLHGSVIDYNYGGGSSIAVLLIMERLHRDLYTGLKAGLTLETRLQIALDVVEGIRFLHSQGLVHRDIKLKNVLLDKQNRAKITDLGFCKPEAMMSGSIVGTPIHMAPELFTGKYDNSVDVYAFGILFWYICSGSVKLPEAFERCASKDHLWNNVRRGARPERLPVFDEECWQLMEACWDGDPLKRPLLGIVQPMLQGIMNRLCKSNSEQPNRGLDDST
UniProt Q5JPH6: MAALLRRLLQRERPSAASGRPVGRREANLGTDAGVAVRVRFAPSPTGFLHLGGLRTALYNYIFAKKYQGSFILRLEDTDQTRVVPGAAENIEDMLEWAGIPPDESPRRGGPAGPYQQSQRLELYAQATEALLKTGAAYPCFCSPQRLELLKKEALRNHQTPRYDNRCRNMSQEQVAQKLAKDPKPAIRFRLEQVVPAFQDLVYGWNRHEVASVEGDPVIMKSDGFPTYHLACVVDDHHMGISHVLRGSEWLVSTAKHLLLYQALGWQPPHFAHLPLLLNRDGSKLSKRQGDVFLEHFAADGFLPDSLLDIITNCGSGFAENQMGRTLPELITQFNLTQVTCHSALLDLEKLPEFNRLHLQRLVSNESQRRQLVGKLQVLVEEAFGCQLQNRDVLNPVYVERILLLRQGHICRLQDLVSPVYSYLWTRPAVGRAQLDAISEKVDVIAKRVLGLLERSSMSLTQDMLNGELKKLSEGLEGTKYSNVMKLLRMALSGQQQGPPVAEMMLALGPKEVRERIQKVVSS
UniProt P50570: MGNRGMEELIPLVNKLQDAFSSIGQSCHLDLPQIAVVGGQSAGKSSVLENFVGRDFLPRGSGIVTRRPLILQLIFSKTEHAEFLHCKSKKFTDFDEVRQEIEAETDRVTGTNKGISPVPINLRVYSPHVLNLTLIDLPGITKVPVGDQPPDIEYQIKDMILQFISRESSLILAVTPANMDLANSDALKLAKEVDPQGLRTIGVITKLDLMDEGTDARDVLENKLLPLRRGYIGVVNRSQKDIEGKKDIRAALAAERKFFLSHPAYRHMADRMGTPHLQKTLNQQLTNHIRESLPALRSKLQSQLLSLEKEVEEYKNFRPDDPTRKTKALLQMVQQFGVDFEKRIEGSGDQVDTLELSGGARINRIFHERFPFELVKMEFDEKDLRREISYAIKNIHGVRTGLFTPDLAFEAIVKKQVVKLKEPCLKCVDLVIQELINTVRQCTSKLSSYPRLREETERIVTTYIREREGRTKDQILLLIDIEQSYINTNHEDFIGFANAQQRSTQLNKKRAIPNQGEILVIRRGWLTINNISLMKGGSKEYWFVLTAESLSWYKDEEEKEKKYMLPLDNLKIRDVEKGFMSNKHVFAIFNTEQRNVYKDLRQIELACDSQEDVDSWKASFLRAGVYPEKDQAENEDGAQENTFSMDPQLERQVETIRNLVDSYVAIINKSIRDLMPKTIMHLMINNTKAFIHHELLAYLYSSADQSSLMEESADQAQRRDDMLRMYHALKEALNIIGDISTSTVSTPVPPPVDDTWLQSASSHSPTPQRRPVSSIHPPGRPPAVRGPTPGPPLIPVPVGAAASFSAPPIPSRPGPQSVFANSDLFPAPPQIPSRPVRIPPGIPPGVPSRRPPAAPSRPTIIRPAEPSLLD
UniProt Q8NF50: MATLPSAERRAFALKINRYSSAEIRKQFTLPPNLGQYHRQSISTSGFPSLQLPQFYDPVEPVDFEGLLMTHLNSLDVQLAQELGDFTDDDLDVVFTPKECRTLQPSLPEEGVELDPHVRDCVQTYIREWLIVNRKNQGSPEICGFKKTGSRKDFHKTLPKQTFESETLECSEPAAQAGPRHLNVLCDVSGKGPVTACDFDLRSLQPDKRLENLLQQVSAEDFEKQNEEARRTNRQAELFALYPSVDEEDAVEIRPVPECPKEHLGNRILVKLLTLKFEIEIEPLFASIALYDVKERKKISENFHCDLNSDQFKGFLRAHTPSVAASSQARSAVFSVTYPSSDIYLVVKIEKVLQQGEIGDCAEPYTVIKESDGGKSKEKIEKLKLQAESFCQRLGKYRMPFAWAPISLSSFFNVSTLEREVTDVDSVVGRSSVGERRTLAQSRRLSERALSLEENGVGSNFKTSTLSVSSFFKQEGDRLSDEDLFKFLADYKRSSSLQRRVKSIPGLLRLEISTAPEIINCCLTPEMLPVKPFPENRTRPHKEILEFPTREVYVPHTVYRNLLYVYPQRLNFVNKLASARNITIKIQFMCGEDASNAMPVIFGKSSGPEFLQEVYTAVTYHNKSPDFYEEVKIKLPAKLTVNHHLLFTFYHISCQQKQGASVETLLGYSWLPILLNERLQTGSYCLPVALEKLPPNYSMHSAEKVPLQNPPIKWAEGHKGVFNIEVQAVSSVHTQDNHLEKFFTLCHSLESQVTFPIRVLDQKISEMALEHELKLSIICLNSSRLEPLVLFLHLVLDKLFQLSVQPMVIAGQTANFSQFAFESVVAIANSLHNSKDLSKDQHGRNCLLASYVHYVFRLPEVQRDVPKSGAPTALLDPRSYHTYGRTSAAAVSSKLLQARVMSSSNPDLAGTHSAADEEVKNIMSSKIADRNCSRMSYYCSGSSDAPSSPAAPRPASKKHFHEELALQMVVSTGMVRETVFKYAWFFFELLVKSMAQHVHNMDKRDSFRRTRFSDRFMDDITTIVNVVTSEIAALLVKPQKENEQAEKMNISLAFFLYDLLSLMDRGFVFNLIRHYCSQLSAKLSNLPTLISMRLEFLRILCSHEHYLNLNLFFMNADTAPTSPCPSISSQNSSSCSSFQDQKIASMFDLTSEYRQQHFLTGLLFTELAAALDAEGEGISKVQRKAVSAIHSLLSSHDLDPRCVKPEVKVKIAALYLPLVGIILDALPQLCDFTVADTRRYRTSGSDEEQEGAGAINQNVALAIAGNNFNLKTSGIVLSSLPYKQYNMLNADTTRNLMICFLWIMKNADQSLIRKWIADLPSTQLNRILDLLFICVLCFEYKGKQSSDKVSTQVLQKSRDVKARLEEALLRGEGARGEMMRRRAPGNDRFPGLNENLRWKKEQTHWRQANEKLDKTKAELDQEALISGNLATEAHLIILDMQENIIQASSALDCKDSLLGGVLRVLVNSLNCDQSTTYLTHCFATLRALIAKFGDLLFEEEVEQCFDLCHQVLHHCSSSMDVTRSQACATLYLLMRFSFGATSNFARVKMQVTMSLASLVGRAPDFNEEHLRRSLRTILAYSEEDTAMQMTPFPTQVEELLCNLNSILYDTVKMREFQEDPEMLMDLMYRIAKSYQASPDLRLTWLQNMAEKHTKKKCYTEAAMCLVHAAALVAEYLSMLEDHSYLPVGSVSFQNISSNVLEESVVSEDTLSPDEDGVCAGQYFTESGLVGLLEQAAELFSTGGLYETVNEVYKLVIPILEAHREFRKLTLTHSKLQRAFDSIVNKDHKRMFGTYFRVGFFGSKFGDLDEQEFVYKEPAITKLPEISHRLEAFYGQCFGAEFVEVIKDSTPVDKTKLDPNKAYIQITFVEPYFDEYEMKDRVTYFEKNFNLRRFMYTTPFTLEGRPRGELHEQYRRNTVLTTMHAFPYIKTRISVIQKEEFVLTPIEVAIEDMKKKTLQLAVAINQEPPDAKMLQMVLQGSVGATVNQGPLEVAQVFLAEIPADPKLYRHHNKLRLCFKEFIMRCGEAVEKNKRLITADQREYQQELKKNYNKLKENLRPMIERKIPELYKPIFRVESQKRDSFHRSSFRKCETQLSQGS
UniProt P23919: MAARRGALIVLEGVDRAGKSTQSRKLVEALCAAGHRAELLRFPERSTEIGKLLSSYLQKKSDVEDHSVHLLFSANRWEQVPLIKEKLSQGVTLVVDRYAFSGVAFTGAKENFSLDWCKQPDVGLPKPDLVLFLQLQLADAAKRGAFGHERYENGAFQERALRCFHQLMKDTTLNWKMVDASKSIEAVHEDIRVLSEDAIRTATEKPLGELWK
UniProt Q99704: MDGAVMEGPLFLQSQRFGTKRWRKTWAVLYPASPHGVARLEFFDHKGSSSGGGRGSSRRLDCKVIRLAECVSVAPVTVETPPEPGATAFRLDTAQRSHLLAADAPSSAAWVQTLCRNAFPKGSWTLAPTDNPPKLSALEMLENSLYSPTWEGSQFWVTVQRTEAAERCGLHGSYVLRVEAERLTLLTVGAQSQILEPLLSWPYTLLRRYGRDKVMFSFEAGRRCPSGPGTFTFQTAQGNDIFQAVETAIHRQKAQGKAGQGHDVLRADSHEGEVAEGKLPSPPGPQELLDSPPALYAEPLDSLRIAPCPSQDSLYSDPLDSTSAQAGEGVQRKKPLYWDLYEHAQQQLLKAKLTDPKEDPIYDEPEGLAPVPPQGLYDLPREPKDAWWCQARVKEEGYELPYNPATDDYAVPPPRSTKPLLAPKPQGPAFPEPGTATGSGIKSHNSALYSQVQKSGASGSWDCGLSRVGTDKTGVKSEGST
UniProt Q8TBM8: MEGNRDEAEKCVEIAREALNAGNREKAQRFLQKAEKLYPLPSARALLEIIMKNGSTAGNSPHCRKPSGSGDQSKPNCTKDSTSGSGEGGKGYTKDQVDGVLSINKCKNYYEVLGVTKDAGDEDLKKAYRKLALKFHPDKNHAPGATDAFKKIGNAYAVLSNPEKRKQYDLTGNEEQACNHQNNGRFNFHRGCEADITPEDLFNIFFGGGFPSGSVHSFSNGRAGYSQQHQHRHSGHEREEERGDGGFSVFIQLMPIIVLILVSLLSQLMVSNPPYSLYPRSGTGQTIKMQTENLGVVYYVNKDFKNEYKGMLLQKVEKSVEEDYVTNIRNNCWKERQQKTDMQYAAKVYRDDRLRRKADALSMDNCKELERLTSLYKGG
UniProt Q9H2P9: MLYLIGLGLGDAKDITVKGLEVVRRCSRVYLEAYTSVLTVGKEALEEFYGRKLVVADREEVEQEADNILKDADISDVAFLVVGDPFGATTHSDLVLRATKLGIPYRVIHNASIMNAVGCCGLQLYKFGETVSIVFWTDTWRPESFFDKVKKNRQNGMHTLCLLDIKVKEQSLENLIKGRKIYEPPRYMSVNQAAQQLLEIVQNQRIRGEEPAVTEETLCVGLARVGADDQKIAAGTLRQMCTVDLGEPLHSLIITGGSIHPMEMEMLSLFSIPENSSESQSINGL
UniProt Q99848: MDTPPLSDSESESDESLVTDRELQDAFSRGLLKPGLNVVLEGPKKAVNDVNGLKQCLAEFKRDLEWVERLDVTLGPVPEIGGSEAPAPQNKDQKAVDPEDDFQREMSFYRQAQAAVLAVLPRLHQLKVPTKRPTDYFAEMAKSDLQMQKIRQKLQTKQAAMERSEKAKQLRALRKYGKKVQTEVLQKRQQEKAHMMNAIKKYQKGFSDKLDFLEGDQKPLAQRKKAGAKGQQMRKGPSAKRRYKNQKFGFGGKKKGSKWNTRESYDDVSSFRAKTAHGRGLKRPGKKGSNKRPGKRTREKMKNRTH

This is one part of the list.

Compound in one experiment: COc1cc2ncnc(Nc3ccc(F)c(Cl)c3)c2cc1OCCCN1CCOCC1 [gefitinib]
Description: log2 fold change, soluble protein after heating vs DMSO (PISA); higher = thermal stabilisation; K562 cells, 10 uM, 30 min; active = over 0.2 and 3.5 SD of the protein, either way, in both replicates (recomputed). An outline of the steps: (§1)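 Thermal stability values are relative to control samples and come from duplicates. They are expressed as log2 fold changes. For measurement, K562 cells (2×10^6 cells/mL) received 10 μM compound for 30 min, and aliquots were heated for 3 min over 48°C-58°C, pooled, and extracted at 4°C in PBS with 0.5% NP-40. Soluble protein, the supernatant after 21,000xg for 90 min, was quantified by TMTpro 16plex LC-MS/MS with equalised channel sums.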
Take DNAJC1 (UniProt Q96KC8): the log2 fold change was inactive: 0.008.
As to DXO (UniProt O77932), the log2 fold change is inactive: -0.016.
The same measure, in the same setting: the same measure for DNPH1 (UniProt H0Y8X4): inactive: -0.072; for DNAJB1 (UniProt P25685): inactive: 0.06.
Regarding DSTYK (UniProt Q6XUX3), the log2 fold change is inactive: -0.043.
Still for that read-out and setting: to EARS2 isoform 2 (UniProt Q5JPH6) belongs inactive: -0.03.
Still for that read-out and setting: the same measure for ECPAS (UniProt Q5VYK3): inactive: -0.007; for DYNC1LI2 (UniProt O43237): inactive: -0.099; for DNM2 isoform 4 (UniProt P50570): inactive: -0.013.
For the target DUSP9 (UniProt Q99956), the log2 fold change is inactive: 0.093.
Same read-out and setting: the same measure for DOCK8 (UniProt Q8NF50): inactive: 0.006; for DTYMK (UniProt P23919): inactive: -0.108.
The same measure, in the same setting: the same measure for DOK1 (UniProt Q99704): inactive: 0.231; for DUS3L (UniProt Q96G46): inactive: 0.02.
The same measure, in the same setting: to DNM2 (UniProt P50570) belongs inactive: 0.002; to DYRK1A isoform 2 (UniProt Q13627), inactive: 0.007; to DYNC1I2 isoform 5 (UniProt Q13409), inactive: -0.003.
As for DTNBP1 (UniProt Q96EV8), the log2 fold change is inactive: 0.018.
The same measure, in the same setting: to DNAJB14 (UniProt Q8TBM8) belongs inactive: 0.125.
The same measure, in the same setting: the same measure for EEA1 (UniProt Q15075): inactive: 0.007; for DPH5 isoform 5 (UniProt Q9H2P9): inactive: 0.017; for DNAJC5 (UniProt Q9H3Z4): inactive: 0.036.
Same read-out and setting: the same measure for DNAJB14 (UniProt H7C494): inactive: -0.106; for EDEM2 (UniProt Q9BV94): inactive: 0.033; for EBNA1BP2 (UniProt Q99848): inactive: -0.01.
As to DNAJC24 (UniProt Q6P3W2), the log2 fold change was inactive: 0.018.

Compound in another experiment: COc1cccc2cc(-c3nc([C@H]4CC[C@H](C(=O)O)CC4)n4ncnc(N)c34)[nH]c12
The description is as above. An outline of the steps:
as §1
Consider DNAJC1 (UniProt Q96KC8), for which the log2 fold change is inactive: 0.022.
Same read-out and setting: the same measure for DXO (UniProt O77932): inactive: 0.015; for DNPH1 (UniProt H0Y8X4): inactive: 0.179; for DNAJB1 (UniProt P25685): inactive: 0.003.
For EARS2 isoform 2 (UniProt Q5JPH6), the log2 fold change was inactive: 0.088.
For the target ECPAS (UniProt Q5VYK3), the log2 fold change is inactive: -0.087.
The same measure, in the same setting: the same measure for DNPEP (UniProt C9JBE1): inactive: 0.078; for DYNC1LI2 (UniProt O43237): inactive: -0.119; for DNM2 isoform 4 (UniProt P50570): inactive: -0.272.
With DOCK8 (UniProt Q8NF50), the log2 fold change was inactive: -0.428.
The same measure, in the same setting: the same measure for DTYMK (UniProt P23919): inactive: 0.152; for DOK1 (UniProt Q99704): inactive: -0.156.
On the same count and under the same terms, to EDRF1 (UniProt Q3B7T1) belongs inactive: 0.044; to DUS3L (UniProt Q96G46), inactive: 0.035.
The same measure, in the same setting: the same measure for DNM2 (UniProt P50570): inactive: 0.023; for DYRK1A isoform 2 (UniProt Q13627): inactive: 0.036.
With DYNC1I2 isoform 5 (UniProt Q13409), the log2 fold change is inactive: 0.004.
For DTNBP1 (UniProt Q96EV8), the log2 fold change is inactive: 0.044.
The same measure, in the same setting: the same measure for DNAJB14 (UniProt Q8TBM8): inactive: 0.304.
The same measure, in the same setting: to EEA1 (UniProt Q15075) belongs inactive: 0.036; to DPH5 isoform 5 (UniProt Q9H2P9), inactive: 0.046; to DUSP14 (UniProt O95147), inactive: 0.3.
Still for that read-out and setting: the same measure for DNAJC5 (UniProt Q9H3Z4): inactive: 0.042; for DNAJB14 (UniProt H7C494): inactive: -0.109; for EDEM2 (UniProt Q9BV94): inactive: 0.205.
Regarding EBNA1BP2 (UniProt Q99848), the log2 fold change is inactive: -0.216.
Still for that read-out and setting: the same measure for DNAJC24 (UniProt Q6P3W2): inactive: -0.112.
